PubChem BioAssay AID493014 (National Center for Advancing Translational Sciences (NCATS), 2011)
The other results are listed elsewhere or left out. Shown are side measurements of this screen, not its main read-out; they come without a call. The list favours compounds with an active or inconclusive main result. The note in brackets gives the kind of curve behind each potency; many fits are weak.

Assay: qHTS Assay to Find Inhibitors of Chronic Active B-Cell Receptor Signaling
Conditions: ABC-DLBCL IkBa-CBG/CBR reporter, luminescence ratio (green luciferase fused to IkBa over red control in TMD8 lymphoma cells), 4 h
Summary of the method: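 Concentration-response series (up to 46 uM) were applied to TMD8 dual-reporter cells for 4 h at 37C with doxycycline. Green/red ratio, after filter-overlap correction, defined %Activity; red signal alone was normalised to basal cells and zero luminescence.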

[1] = measured here: CBR red luminescence, cell number
[2] = measured here: IkBa-CBG green luminescence

SMILES	AC50 [1]	AC50 [2]
COc1ccc(C2CC(c3ccccc3)=NN2C(=O)CSc2nccc(=O)[nH]2)cc1 (stereo not given)	18.4 µM [rising, partial curve, poor fit]	–
O=C(CCN1C(=O)S/C(=C/c2ccc(F)cc2)C1=O)Nc1ccc(O)c(C(=O)O)c1	0.0891 µM [falling, full curve, poor fit]	–
C=CCN(CC=C)Cc1c(O)ccc2c(=O)c(-c3ccccc3)coc12	11.2 µM [rising, partial curve, poor fit]	–
CC(C)(C)NC(=O)NC(=O)COC(=O)c1cccc(OC(F)F)c1	22.4 µM [falling, single point]	–
O=C(Cc1ccccc1)Nc1ccccc1C(=O)Nc1ccccc1	4.61 µM [rising, full curve, poor fit]	–
NC(=O)c1cnn(-c2cc(Oc3ccccc3)ncn2)c1N	15.8 µM [rising, partial curve, poor fit]	–
Cc1cc(NC(=O)CCC(=O)N(Cc2ccco2)C(C(=O)NC2CCCCC2)c2cccs2)no1 (stereo not given)	20 µM [falling, partial curve, poor fit]	–
O=C(O)c1ccc(N=NNc2cccc([N+](=O)[O-])c2)cc1	2.24 µM [falling, partial curve]	–
CC(=O)Nc1ccc(NC(=O)COC(=O)c2ccccc2SCC(=O)N2CCCC2)cc1	29.1 µM [rising, partial curve, poor fit]	–
CC(C)(C)OC(=O)C[C@@H]1C/C=C\C[C@H](CC(=O)N(CCO)Cc2ccccc2)C(=O)NC[C@H](c2ccccc2)OC1=O	18.4 µM [rising, single point]	–
O=C(COC(=O)c1c2c(nc3ccccc13)CCCC2)c1ccc(Br)s1	29.1 µM [falling, single point]	–
O=C(N/N=C1/CC2C=CCC12)c1cccs1 (stereo not given)	25.1 µM [falling, single point]	–
CCOC(=O)NC(NC(=S)Nc1ccc(OCC)cc1)C(Cl)(Cl)Cl (stereo not given)	9.2 µM [falling, partial curve, poor fit]	–
COc1ccccc1-c1nnc2sc(COc3ccccc3)nn12	35.5 µM [falling, single point]	–
Cc1ccc(NCC(=O)c2ccc([N+](=O)[O-])cc2)cc1	35.5 µM [falling, single point]	–
Cc1cc(=O)oc2cc(OS(C)(=O)=O)ccc12	11.2 µM [rising, partial curve, poor fit]	–
COc1cc(/C=C2\SC(=S)N(CC(=O)Nc3ccc(O)cc3)C2=O)cc(OC)c1OC	35.5 µM [rising, single point]	–
CCOc1ccc(NC(=O)c2ccc(N)cc2)cc1	11.6 µM [falling, partial curve]	–
CCOc1cc(CNc2ccc3c(c2)OCCO3)cc(Br)c1OC	6.51 µM [falling, single point]	–
CS(=O)(=O)n1nc(-c2ccc(Cl)cc2)nc1N	1.12 µM [rising, partial curve]	–
CN(C)/C=N/c1ncc(C(=O)c2ccc3ccccc3c2)s1	35.5 µM [falling, single point]	–

SMILES	AC50 [1]	AC50 [2]
CCc1nnc(NC(=O)C2COc3ccccc3O2)s1 (stereo not given)	13 µM [falling, partial curve, poor fit]	–
COC(=O)c1c(NC(=O)c2ccco2)sc2c1CCN(C(C)C)C2	35.5 µM [falling, single point]	–
O=c1oc2c(CN3CCOCC3)c(O)ccc2c2c1CCCC2	7.08 µM [rising, full curve, poor fit]	–
Cc1cccc(CN2CCN(CC(=O)N3CCCC3)C2=O)c1	0.206 µM [rising, full curve, poor fit]	–
Cc1ccc(C(C)C)cc1NC(=O)Nc1ccc([N+](=O)[O-])cc1	28.2 µM [rising, single point]	–
CN(C1CCCCC1)S(=O)(=O)c1ccc(NC(=O)c2ccc(Br)o2)cc1	1.3 µM [falling, full curve, poor fit]	–
O=C(CCc1[nH]c2ccccc2c1Sc1ccccc1)NCCO	32.6 µM [falling, single point]	–
CC(C)(C)NC(=O)CC(CC(=O)O)c1ccccc1 (stereo not given)	29.1 µM [rising, single point]	–
O=C(CSc1nnc(-c2ccc(Cl)cc2)n1Cc1ccco1)Nc1ccc2c(c1)OCCO2	10 µM [falling, partial curve, poor fit]	–
S=C(Nc1cccc(Cl)c1Cl)N1CCC2(CC1)OCCO2	14.1 µM [rising, partial curve, poor fit]	–
O=C(COC(=O)c1cnccn1)c1ccc(Cl)c([N+](=O)[O-])c1	14.1 µM [falling, partial curve, poor fit]	–
O=C(c1ccccc1)n1c(=S)nc2ccccn21	2.51 µM [falling, full curve, poor fit]	–
CC1CC(C)CN(C(=O)C(NS(=O)(=O)c2ccc(Br)s2)c2ccccc2)C1 (stereo not given)	8.2 µM [falling, partial curve]	–
Cc1cc(NC(=O)c2cccs2)ncc1NC(=O)C(C)C	22.4 µM [falling, single point]	–
O=C(CSc1ccc(Br)cc1)Nc1ccccc1N1CCOCC1	20 µM [falling, single point]	–
CN(/C=C/C(=O)C(F)(F)C(F)(F)F)Cc1ccccc1	23.1 µM [rising, single point]	–
Cc1c(C(=O)N2CCCCC2)nnn1-c1nonc1N	2.31 µM [rising, partial curve, poor fit]	–
COc1ccc(S(=O)(=O)Nc2ccc3c(c2)C(=O)N([C@H](C)CO)C[C@H](C)[C@@H](CN(C)C(=O)NC2CCCCC2)O3)cc1	2.06 µM [rising, partial curve, poor fit]	–
Cc1ccccc1N=CC=C1OC(C)(C)C(C)(C)O1	29.1 µM [falling, single point]	–
CSc1nc2c(cnn2-c2ccccc2)c(=O)n1N	11.2 µM [falling, partial curve, poor fit]	–
COc1ccc(/C=N/NC(=O)CN(C)C(=O)OCc2ccccc2)cc1OC	15.8 µM [rising, partial curve, poor fit]	–

SMILES	AC50 [1]	AC50 [2]
COc1cc(S(=O)(=O)N2CCCCC2)ccc1NC(=O)/C=C/c1ccccc1	18.4 µM [rising, partial curve]	9.2 µM [falling, partial curve]
Cc1cccc(/C(N)=N/OC(=O)c2ccc(Br)o2)c1	2.06 µM [rising, partial curve, poor fit]	–
N#CC(/C(=N/S(=O)(=O)c1cccs1)c1ccccc1)c1nc2ccccc2[nH]1 (stereo not given)	2.91 µM [rising, full curve, poor fit]	–
Cc1cc(C)cc(NC(=O)N2CCCC2C(=O)NCc2ccco2)c1 (stereo not given)	1.41 µM [falling, full curve, poor fit]	–
FC(F)(F)c1nc2ccccc2nc1N/N=C/c1c(Cl)cccc1Cl	32.6 µM [falling, partial curve, poor fit]	–
O=S(=O)(c1ccccc1)N1CCN=C1SCc1ccccc1Cl	5.01 µM [rising, partial curve, poor fit]	–
CC(=O)Nc1ccc(S(=O)(=O)N(C)CC(=O)NC2CCCC(C)C2C)cc1 (stereo not given)	11.6 µM [rising, partial curve]	–
CSc1nc2ccc(NC(=O)c3c(F)cccc3F)cc2s1	15.8 µM [falling, single point]	–
CCNC(=O)NC(=O)CSc1ccc(S(=O)(=O)N2CCCCC2)cn1	29.1 µM [rising, partial curve, poor fit]	–
FC(F)(F)c1nnc2c(Sc3ccccc3)nc3ccccc3n12	9.2 µM [falling, partial curve]	–
COc1ccccc1/C=C1\SC(=S)N(CCC(=O)NC2=NCCS2)C1=O	1.84 µM [falling, full curve]	23.1 µM [rising, partial curve, poor fit]
Cc1ccc(NC(=O)c2cc(S(=O)(=O)N3CCOCC3)cn2C)cc1Cl	14.1 µM [falling, single point]	–
CN(c1cccc(NC(=O)c2ccc(Cl)c(S(=O)(=O)Nc3ccccc3)c2)c1)S(C)(=O)=O	14.6 µM [falling, partial curve, poor fit]	–
Cc1cc(C)c2[nH]c(O)c(N=Nc3ccc(C(=O)O)cc3)c2c1	0.447 µM [falling, full curve]	–
Cc1cc2nc(SCCOC(=O)Nc3cccc(Cl)c3)nc(C)c2cc1C	2.59 µM [rising, partial curve, poor fit]	–
O=C1C(Cl)=C(N2CCCCCC2)C(=O)N1c1ccccc1	11.2 µM [falling, partial curve]	–
COc1ccccc1/C=N/NC(=O)c1ccc2c(c1)OCO2	7.08 µM [falling, partial curve]	–
CC(Sc1ncnc2ccccc12)C(=O)Nc1ccc2c(c1)OCO2 (stereo not given)	3.16 µM [falling, full curve]	–
CCN(CC)CCCn1c2c(c(SCC(=O)Nc3nccs3)nc1=O)CCC2	9.2 µM [falling, partial curve]	–
CC(C)c1nc(SCC(=O)N2CCCC2)c2ccccc2n1	12.6 µM [falling, single point]	–
CN(Cc1ccccc1)C(=O)c1ccc(NC(=O)Cc2cccc(NC(=O)C3CCN(C(=O)C4CC4)CC3)c2)cc1	1.3 µM [falling, full curve, poor fit]	–

A different layout for two compounds above.
SMILES | AC50 [1] | AC50 [2]
COc1ccccc1/C=N/NC(=O)c1ccc2c(c1)OCO2 | 7.08 µM [falling, partial curve] | –
CC(Sc1ncnc2ccccc12)C(=O)Nc1ccc2c(c1)OCO2 (stereo not given) | 3.16 µM [falling, full curve] | –
